According to patent publication US5110904A (Abbott Laboratories, priority 1990, dated 1992):

Assay: general procedure: Boc solid-phase peptide synthesis; Boc-Pro-O-Resin (Merrifield resin); DCC in dichloromethane (or DIC, with or without HOBT)
Conditions: whole synthesis, scale 1.05 mmol, trifluoroacetate salt

[pGlu]HW[NMeS]Y[dL]LRP-NHEt
crude mass: 0.7 g

Non-standard residues stand in square brackets, D forms with d. pGlu = O=C1CC[C@@H](C(=O)O)N1; NMeS = CN[C@@H](CO)C(=O)O
